Assay results: patent US8394796B2, “Bicyclic pyrimidine PI3K inhibitor compounds selective for P110 delta, and methods of use” (Genentech, Inc., priority 2009, dated 2013)
For at least one compound, name, drawing or mass did not settle the structure.

Sequences of proteins named here, by UniProt entry; tags and fusion partners are left off. A change or cut given only in a name is not applied to a line headed by its entry.
UniProt O00329: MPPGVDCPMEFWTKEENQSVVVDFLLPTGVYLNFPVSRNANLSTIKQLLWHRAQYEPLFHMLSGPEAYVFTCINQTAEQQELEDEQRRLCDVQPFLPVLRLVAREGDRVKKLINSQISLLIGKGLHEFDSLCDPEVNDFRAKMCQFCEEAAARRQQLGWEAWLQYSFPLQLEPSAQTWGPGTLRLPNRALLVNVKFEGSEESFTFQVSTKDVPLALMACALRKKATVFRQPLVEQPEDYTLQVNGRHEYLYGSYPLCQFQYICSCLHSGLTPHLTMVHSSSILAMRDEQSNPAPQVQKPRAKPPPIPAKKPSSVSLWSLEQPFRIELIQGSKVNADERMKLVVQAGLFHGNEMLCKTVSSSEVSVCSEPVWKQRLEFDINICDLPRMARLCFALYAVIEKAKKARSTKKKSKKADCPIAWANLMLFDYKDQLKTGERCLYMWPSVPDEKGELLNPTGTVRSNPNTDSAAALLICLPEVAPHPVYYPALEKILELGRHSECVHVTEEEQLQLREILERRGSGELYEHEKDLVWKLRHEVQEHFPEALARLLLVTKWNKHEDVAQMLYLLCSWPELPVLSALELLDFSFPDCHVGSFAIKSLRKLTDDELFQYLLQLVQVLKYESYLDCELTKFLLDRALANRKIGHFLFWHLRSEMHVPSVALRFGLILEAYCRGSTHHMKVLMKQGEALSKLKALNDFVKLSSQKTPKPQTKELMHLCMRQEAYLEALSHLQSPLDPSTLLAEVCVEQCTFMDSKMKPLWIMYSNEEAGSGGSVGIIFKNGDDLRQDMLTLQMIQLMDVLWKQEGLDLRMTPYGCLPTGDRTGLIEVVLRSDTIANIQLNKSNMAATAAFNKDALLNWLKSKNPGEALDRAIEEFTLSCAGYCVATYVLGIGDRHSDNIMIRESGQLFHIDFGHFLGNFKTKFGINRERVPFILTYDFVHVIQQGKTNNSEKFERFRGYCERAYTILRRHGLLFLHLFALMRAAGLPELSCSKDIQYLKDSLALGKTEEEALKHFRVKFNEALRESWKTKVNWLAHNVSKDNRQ

Molecular target: T1, p110δ/p85α (PI3K p110 delta) (Homo sapiens, UniProt O00329)
T1 construct: purchased Upstate Group, Millipore; Dundee, UK
Test: PI3K isoform inhibition assay (fluorescence polarization PIP3 displacement; alternatively radiometric), p110 delta
Type: biochemical
Conditions: delta/alpha selectivity: ratio of p110 alpha IC50 to p110 delta IC50
Experimental: PI3K Isoform Inhibition Assay (p110 Alpha, Beta, Gamma, Delta: α, β, γ, δ)
PI3K enzymatic activity was assayed by measuring the amount of product phosphatidylinositol 3,4,5-phosphate (PIP3) formed from substrate 4,5 phosphatidylinositol 4,5-phosphate (PIP2) using a fluorescence polarization displacement assay. The decrease in fluorescence polarization of a fluorescent PIP3 probe is measured as it is displaced from a PIP3-binding protein GRP-1 detector by PI3K-catalyzed product. […] The kinase reactions were initiated by the addition of 40 ng/mL p110α/p85α, 300 ng/mL p110β/p85α, 40 ng/mL p110γ, or 40 ng/mL p110δ/p85α (Upstate Group, Millipore; Dundee, UK), and 10 μM PIP2 (Echelon Biosciences) to the wells. […] After 60 minutes of incubation at room temperature to allow equilibration of labeled and unlabeled PIP3 binding, the parallel and perpendicular components of the fluorescence emissions from each sample were measured at an excitation wavelength of 530 nm and an emission wavelength of 590 nm using an Envision fluorescent plate reader with a rhodamine filter (PerkinElmer Life and Analytical Sciences; Wellesley, Mass.). The assay is capable of detecting 0.1-2.0 μM PIP3 product. […]
The Formula I compound was serially diluted in 100% DMSO. […] IC50 values were subsequently determined using sigmoidal dose-response curve fit (variable slope). […]

| Compound | IC50 p110 alpha/IC50 p110 delta |
| --- | --- |
| CCc1nc2ccccc2n1-c1nc(N2CCOCC2)c2nc(C(=O)C3CCN(C(C)(C)C(=O)OC)CC3)n(C)c2n1 [Example 528, methyl 2-(4-(2-(2-ethyl-1H-benzo[d]imidazol-1-yl)-9-methyl-6-morpholino-9H-purine-8-carbonyl)piperidin-1-yl)-2-methylpropanoate] | 136 |
| CCc1nc2ccccc2n1-c1nc(N2CCOCC2)c2nc(CC3CN(C(C)(C)C(N)=O)C3)n(C)c2n1 [Example 531, 2-(3-((2-(2-ethyl-1H-benzo[d]imidazol-1-yl)-9-methyl-6-morpholino-9H-purin-8-yl)methyl)azetidin-1-yl)-2-methylpropanamide] | 96 |
